Reference: PubChem BioAssay AID248 (DTP/NCI, 2004)
The list does not hold the whole screen: it gathers tests that were run many times, whatever their T/C, doses with no T/C, and many T/C values between a quarter and a half above the control. Further doses and runs are listed elsewhere. T/C is the treated group as % of the vehicle group. Some entries give survivors of the animals treated and no T/C: the source holds a T/C of zero for them, seemingly a mark for toxic or unscored doses. Some survivor counts are full or nearly so, which does not show that the dose was tolerated: the source hardly ever lists a survival T/C far under the control, and the zero likely stands for such cases as well. Counts of survivors are from the toxicity check (mostly the fifth day) where no day follows; animals may have died later. Schedule codes are those of the source, taken here to give the interval after Q, in days (D) or hours (H), and the number of doses after X. Brackets with × count equal records among those shown. Some schedules carry Z or #; the key to these is not given. Some doses were run more than once; the results are listed from low to high. Where survival is the endpoint, the PubChem record calls one and a half times the control and up active, and a quarter to a half above the control has no call in these data; cut-offs in other NCI protocols can differ.

Tested on: L1210 leukemia ip in BDF1 mice, survival T/C
Experiment: NCI In Vivo Anticancer Drug Screen. Data for tumor model L1210 Leukemia (intraperitoneal) in B6D2F1 (BDF1) mice
Settings: higher T/C = longer survival
[1] = T/C endpoint: mean survival time, dose: 400.0 mg/kg/injection, schedule: Q04DX003 (ip), vehicle: Klucel (hydroxypropylcellulose) (HPC)
[2] = T/C endpoint: mean survival time, dose: 400.0 mg/kg/injection, schedule: Q01DX001 (ip), vehicle: saline

Q: What does the source list for `CN(N=O)C(N)=O`?
A: T/C (T/C endpoint: mean survival time, dose: 1.25 mg/kg/injection, schedule: Q01DX Z (sc), vehicle: steroid suspending solution): 135 % of control; T/C (T/C endpoint: mean survival time, dose: 3.12 mg/kg/injection, schedule: Q01DX Z (oral), vehicle: steroid suspending solution): 133 % of control; T/C (T/C endpoint: mean survival time, dose: 5.3 mg/kg/injection, schedule: Q01DX Z (ip), vehicle: saline): 145 % of control; T/C (T/C endpoint: mean survival time, dose: 8.0 mg/kg/injection, schedule: Q02DX010 (ip), vehicle: saline): 129 % of control; T/C (T/C endpoint: mean survival time, dose: 8.6 mg/kg/injection, schedule: Q02DX010 (ip), vehicle: carboxymethylcellulose (CMC)): 105, 119, 121, 128, 130 % of control; T/C (T/C endpoint: mean survival time, dose: 9.0 mg/kg/injection, schedule: Q01DX Z (ip), vehicle: carboxymethylcellulose (CMC)): 134 and 144 % of control; T/C (T/C endpoint: mean survival time, dose: 9.0 mg/kg/injection, schedule: Q01DX Z (sc), vehicle: saline): 127 % of control; T/C (T/C endpoint: mean survival time, dose: 10.0 mg/kg/injection, schedule: Q01DX009 (ip), vehicle: saline): 137 and 139 % of control; T/C (T/C endpoint: mean survival time, dose: 10.7 mg/kg/injection, schedule: Q02DX010 (ip), vehicle: saline): 128 % of control; T/C (T/C endpoint: mean survival time, dose: 12.0 mg/kg/injection, schedule: Q01DX Z (sc), vehicle: other): 143 % of control; T/C (T/C endpoint: mean survival time, dose: 12.0 mg/kg/injection, schedule: Q01DX Z (sc), vehicle: saline): 128 % of control; T/C (T/C endpoint: mean survival time, dose: 13.0 mg/kg/injection, schedule: Q02DX010 (ip), vehicle: carboxymethylcellulose (CMC)): 116, 121, 125, 141, 154 % of control; T/C (T/C endpoint: mean survival time, dose: 13.0 mg/kg/injection, schedule: Q02DX010 (ip), vehicle: other): 130 % of control; T/C (T/C endpoint: mean survival time, dose: 13.0 mg/kg/injection, schedule: Q02DX010 (ip), vehicle: saline): 138 % of control; T/C (T/C endpoint: mean survival time, dose: 13.4 mg/kg/injection, schedule: Q02DX010 (ip), vehicle: carboxymethylcellulose (CMC)): 126, 128, 138, 141, 148 % of control; T/C (T/C endpoint: mean survival time, dose: 16.0 mg/kg/injection, schedule: Q02DX010 (ip), vehicle: saline): 149 % of control; T/C (T/C endpoint: mean survival time, dose: 18.0 mg/kg/injection, schedule: Q01DX Z (ip), vehicle: carboxymethylcellulose (CMC)): 146 % of control; T/C (T/C endpoint: mean survival time, dose: 18.0 mg/kg/injection, schedule: Q01DX Z (sc), vehicle: saline): 130 % of control; T/C (T/C endpoint: mean survival time, dose: 20.0 mg/kg/injection, schedule: Q02DX010 (ip), vehicle: carboxymethylcellulose (CMC)): 124, 125, 127, 131, 139, 146 (2×), 148, 152, 159 % of control; T/C (T/C endpoint: mean survival time, dose: 24.8 mg/kg/injection, schedule: Q01DX Z (oral), vehicle: saline): 137 % of control; survivor count (T/C endpoint: mean survival time, dose: 25.0 mg/kg/injection, schedule: Q01DX Z (oral), vehicle: steroid suspending solution): 4 of 7; T/C (T/C endpoint: mean survival time, dose: 27.0 mg/kg/injection, schedule: Q01DX Z (ip), vehicle: carboxymethylcellulose (CMC)): 149 % of control; T/C (T/C endpoint: mean survival time, dose: 27.0 mg/kg/injection, schedule: Q01DX Z (ip), vehicle: saline): 132 % of control; T/C (T/C endpoint: mean survival time, dose: 27.0 mg/kg/injection, schedule: Q01DX Z (sc), vehicle: other): 132 % of control; T/C (T/C endpoint: mean survival time, dose: 27.0 mg/kg/injection, schedule: Q01DX Z (sc), vehicle: saline): 130 % of control; T/C (T/C endpoint: mean survival time, dose: 30.0 mg/kg/injection, schedule: Q02DX010 (ip), vehicle: carboxymethylcellulose (CMC)): 156, 157, 164, 166, 172, 173, 176, 179, 186, 188 % of control; T/C (T/C endpoint: mean survival time, dose: 36.0 mg/kg/injection, schedule: Q01DX001 (ip), vehicle: saline): 141 % of control; T/C (T/C endpoint: mean survival time, dose: 36.0 mg/kg/injection, schedule: Q01DX Z (oral), vehicle: saline): 140 and 143 % of control; T/C (T/C endpoint: mean survival time, dose: 45.0 mg/kg/injection, schedule: Q02DX010 (ip), vehicle: carboxymethylcellulose (CMC)): 115, 119, 120, 122, 133, 137 (2×), 146, 155, 170 % of control; T/C (T/C endpoint: mean survival time, dose: 45.0 mg/kg/injection, schedule: Q02DX010 (ip), vehicle: other): 138 % of control; T/C (T/C endpoint: mean survival time, dose: 45.0 mg/kg/injection, schedule: Q02DX010 (ip), vehicle: saline): 133 % of control; survivor count (T/C endpoint: mean survival time, dose: 50.0 mg/kg/injection, schedule: Q#A X Z (oral), vehicle: saline): 0 of 7; T/C (T/C endpoint: mean survival time, dose: 54.4 mg/kg/injection, schedule: Q02DX010 (ip), vehicle: saline): 132 % of control; survivor count (T/C endpoint: mean survival time, dose: 60.0 mg/kg/injection, schedule: Q01DX Z (ip), vehicle: saline): 6 of 6; T/C (T/C endpoint: mean survival time, dose: 68.0 mg/kg/injection, schedule: Q02DX010 (ip), vehicle: carboxymethylcellulose (CMC)): 81, 84, 85, 104 % of control; survivor count (T/C endpoint: mean survival time, dose: 84.0 mg/kg/injection, schedule: Q01DX Z (oral), vehicle: saline): 6 of 6; survivor count (T/C endpoint: mean survival time, dose: 90.0 mg/kg/injection, schedule: Q01DX Z (ip), vehicle: saline): 3 of 6; survivor count (T/C endpoint: mean survival time, dose: 135.0 mg/kg/injection, schedule: Q01DX Z (ip), vehicle: saline): 0 of 6; survivor count (T/C endpoint: mean survival time, dose: 144.0 mg/kg/injection, schedule: Q01DX001 (ip), vehicle: saline): 7 of 10; survivor count (T/C endpoint: mean survival time, dose: 200.0 mg/kg/injection, schedule: Q01DX Z (ip), vehicle: saline): 0 of 6; survivor count (T/C endpoint: mean survival time, dose: 201.0 mg/kg/injection, schedule: Q03DX Z (oral), vehicle: saline): 0 of 7; survivor count (T/C endpoint: mean survival time, dose: 288.0 mg/kg/injection, schedule: Q01DX001 (ip), vehicle: saline): 0 of 10; survivor count (T/C endpoint: mean survival time, dose: 300.0 mg/kg/injection, schedule: Q03DX Z (oral), vehicle: saline): 0 of 7; survivor count (T/C endpoint: mean survival time, dose: 315.0 mg/kg/injection, schedule: Q07DX Z (oral), vehicle: saline): 0 of 7; survivor count (T/C endpoint: mean survival time, dose: 320.0 mg/kg/injection, schedule: Q01DX Z (sc), vehicle: steroid suspending solution): 6 of 7; survivor count (T/C endpoint: mean survival time, dose: 469.0 mg/kg/injection, schedule: Q07DX Z (oral), vehicle: saline): 0 of 7; survivor count (T/C endpoint: mean survival time, dose: 700.0 mg/kg/injection, schedule: Q07DX Z (oral), vehicle: saline): 0 of 7; T/C (T/C endpoint: median survival time, dose: 5.0 mg/kg/injection, schedule: Q01DX009 (ip), vehicle: saline): 127 % of control; T/C (T/C endpoint: median survival time, dose: 6.0 mg/kg/injection, schedule: Q01DX009 (ip), vehicle: saline, evaluated on day 30): 139 % of control; T/C (T/C endpoint: median survival time, dose: 6.0 mg/kg/injection, schedule: Q01DX009 (ip), vehicle: saline, evaluated on day 32): 130 % of control; T/C (T/C endpoint: median survival time, dose: 6.3 mg/kg/injection, schedule: Q01DX017 (ip), vehicle: saline): 144 % of control; T/C (T/C endpoint: median survival time, dose: 10.0 mg/kg/injection, schedule: Q01DX009 (ip), vehicle: saline): 142 % of control; T/C (T/C endpoint: median survival time, dose: 12.0 mg/kg/injection, schedule: Q01DX009 (ip), vehicle: saline): 140 % of control; T/C (T/C endpoint: median survival time, dose: 24.0 mg/kg/injection, schedule: Q01DX009 (ip), vehicle: saline): 129 % of control; survivor count (T/C endpoint: median survival time, dose: 48.0 mg/kg/injection, schedule: Q01DX009 (ip), vehicle: saline): 8 of 8 (2×)

Q: What does the source list for `CC1(N2CCCC2)CCCCC1`?
A: survivor count (T/C endpoint: mean survival time, dose: 200.0 mg/kg/injection, schedule: Q01DX001 (ip), vehicle: carboxymethylcellulose (CMC)): 2 of 4; survivor count (T/C endpoint: mean survival time, dose: 400.0 mg/kg/injection, schedule: Q01DX001 (ip), vehicle: carboxymethylcellulose (CMC)): 1 of 4

Q: `Cc1ccc(/C=C/[N+](=O)[O-])cc1` was tested. Which survivor count (T/C endpoint: mean survival time, dose: 100.0 mg/kg/injection, schedule: Q04DX003 (ip), vehicle: Klucel (hydroxypropylcellulose) (HPC)) did it give?
A: 6 of 6

Q: What about the survivor count (T/C endpoint: mean survival time, dose: 200.0 mg/kg/injection, schedule: Q04DX003 (ip), vehicle: Klucel (hydroxypropylcellulose) (HPC)) of the same compound?
A: 6 of 6

Q: What about the survivor count [1] of the same compound?
A: 0 of 6

Q: How did the survivor count (T/C endpoint: mean survival time, dose: 200.0 mg/kg/injection, schedule: Q01DX005 (ip), vehicle: saline) turn out when `Cn1cnc(/C(N)=N\O)c1N` was run?
A: 1 of 4

Q: What about the survivor count (T/C endpoint: mean survival time, dose: 400.0 mg/kg/injection, schedule: Q01DX005 (ip), vehicle: saline) of the same compound?
A: 1 of 4

Q: For `CC(C)=CCC/C(C)=C\CCl`, which survivor count (T/C endpoint: mean survival time, dose: 200.0 mg/kg/injection, schedule: Q01DX009 (ip), vehicle: saline with Tween-80) is on record?
A: 6 of 6

Q: What about the survivor count (T/C endpoint: mean survival time, dose: 400.0 mg/kg/injection, schedule: Q01DX009 (ip), vehicle: saline with Tween-80) of the same compound?
A: 0 of 6

Q: Which results are given for `COc1cc(-c2ccc(Nc3ccccc3C(=O)O)c(OC)c2)ccc1N`?
A: survivor count (T/C endpoint: mean survival time, dose: 50.0 mg/kg/injection, schedule: Q01DX Z (ip), vehicle: carboxymethylcellulose (CMC)): 3 of 6 and 4 of 6; survivor count (T/C endpoint: mean survival time, dose: 75.0 mg/kg/injection, schedule: Q01DX Z (ip), vehicle: carboxymethylcellulose (CMC)): 1 of 6; survivor count [2]: 1 of 6

Q: Which survivor count [1] does the source give for `ClC1=C(Cl)C2(Cl)C3COCC3C1(Cl)C2(Cl)Cl` (centres undefined) here?
A: 6 of 6

Q: With `CCCCCCCNC(=O)CI` as the compound, how does the survivor count [2] read?
A: 0 of 4
